Some of the results follow. Many values rest on one well or one pass, so single values are uncertain.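 Imaging used 1,536-well plates; nuclei positive for cleaved PARP by antibody were divided by total DNA-stained nuclei to yield the apoptosis fraction. Doses for screening kept most cells viable, and cell lines differ markedly in resting and induced cleaved-PARP levels.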
Experiments:
Assay in all cases: cleaved PARP positive nuclei fraction relative to DMSO control; melanoma cells; higher = more apoptosis
Conditions in all cases: library dose: low library concentration; 72 h
MZ2-MEL = tested on: MZ2-MEL
MeWo = tested on: MeWo
RPMI7951 = tested on: RPMI7951
RVH-421 = tested on: RVH-421
SkMel28 = tested on: SkMel28
SkMel2 = tested on: SkMel2
SkMel30 = tested on: SkMel30
SkMel5 = tested on: SkMel5
UACC257 = tested on: UACC257
UACC62 = tested on: UACC62

| SMILES | cleaved PARP positive nuclei fraction (MZ2-MEL) [%] | cleaved PARP positive nuclei fraction (MeWo) [%] | cleaved PARP positive nuclei fraction (RPMI7951) [%] | cleaved PARP positive nuclei fraction (RVH-421) [%] | cleaved PARP positive nuclei fraction (SkMel28) [%] | cleaved PARP positive nuclei fraction (SkMel2) [%] | cleaved PARP positive nuclei fraction (SkMel30) [%] | cleaved PARP positive nuclei fraction (SkMel5) [%] | cleaved PARP positive nuclei fraction (UACC257) [%] | cleaved PARP positive nuclei fraction (UACC62) [%] |
| --- | --- | --- | --- | --- | --- | --- | --- | --- | --- | --- |
| CC1(C)NC(=O)N(c2ccc([N+](=O)[O-])c(C(F)(F)F)c2)C1=O [nilutamide] + Cc1cc(N2CCOCC2)cc2[nH]c(-c3c(NC[C@@H](O)c4cccc(Cl)c4)cc[nH]c3=O)nc12 [BMS536924] (first compound 1 µM, partner dose 0.2 µM) | 94.4 | 192 | 92.1 | 85.1 | 65.7 | 56.7 | 63.5 | 35.9 | 31.4 | 99.2 |
| CC(=O)c1c(C)c2cnc(Nc3ccc(N4CCNCC4)cn3)nc2n(C2CCCC2)c1=O [palbociclib] + COc1ccc(-c2ccc3c(N4CCOCC4)nc(N4C[C@@H](C)O[C@@H](C)C4)nc3n2)cc1CO [KU0063794] (first compound 0.04 µM, partner dose 0.02 µM) | 89.7 | 180 | 99.7 | 255 | 129 | 62.8 | 37 | 82.1 | 110 | 319 |
| CC(C)(C)c1cnc(CSc2cnc(NC(=O)C3CCNCC3)s2)o1 + Cn1cncc1[C@@](N)(c1ccc(Cl)cc1)c1ccc2c(c1)c(-c1cccc(Cl)c1)cc(=O)n2C [tipifarnib] (first compound 0.01 µM, partner dose 0.01 µM) | 126 | 179 | 78.5 | 112 | 68.8 | 145 | 149 | 86.9 | 279 | 110 |
| CC(=O)c1c(C)c2cnc(Nc3ccc(N4CCNCC4)cn3)nc2n(C2CCCC2)c1=O [palbociclib] + CC1(C)NC(=O)N(c2ccc([N+](=O)[O-])c(C(F)(F)F)c2)C1=O [nilutamide] (first compound 0.04 µM, partner dose 1 µM) | 34.2 | 55.5 | 121 | 71.9 | 166 | 61 | 89.4 | 67.8 | 115 | 233 |
| Clc1ccc(Nc2nnc(Cc3ccncc3)c3ccccc23)cc1 [vatalanib] + C=CCn1c(=O)c2cnc(Nc3ccc(N4CCN(C)CC4)cc3)nc2n1-c1cccc(C(C)(C)O)n1 [MK1775] (first compound 2 µM, partner dose 0.02 µM) | 86.8 | 164 | 57.4 | 112 | 176 | 95.8 | 65.6 | 254 | 148 | 198 |
| C[C@]1(c2nc3c(C(N)=O)cccc3[nH]2)CCCN1 [Veliparib] + CO[C@@H]1[C@H](N(C)C(=O)c2ccccc2)C[C@H]2O[C@]1(C)n1c3ccccc3c3c4c(c5c6ccccc6n2c5c31)C(=O)NC4 [Midostaurin] (first compound 1.4 µM, partner dose 0.08 µM) | 247 | 63.3 | 211 | 108 | 32.2 | 278 | 61 | 68.5 | 66.1 | 131 |
| OCc1c[nH]c2ccccc12 [Indole-3-carbinol] + O=C(CCCCCCC(=O)Nc1ccccc1)NO [vorinostat] (first compound 0.8 µM, partner dose 0.08 µM) | 72.8 | 37 | 48.9 | 174 | 399 | 48.9 | 44.2 | 381 | 44.2 | 107 |
| Clc1ccc(Nc2nnc(Cc3ccncc3)c3ccccc23)cc1 [vatalanib] + N#Cc1c(O)c2c(-c3ccc(-c4ccccc4O)cc3)csc2[nH]c1=O [A769662] (first compound 2 µM, partner dose 2 µM) | 86.7 | 109 | 240 | 54.6 | 62.2 | 96.9 | 355 | 78.1 | 24.2 | 60.9 |
| Clc1ccc(Nc2nnc(Cc3ccncc3)c3ccccc23)cc1 [vatalanib] + COc1ccc2c(c1)CCC1C2CCC2(C)C(NCCCCCCN3C(=O)C=CC3=O)CCC12 [U73122] (first compound 2 µM, partner dose 0.4 µM) | 157 | 40.1 | 115 | 132 | 357 | 25900 | 163 | 100 | 177 | 144 |
| Cn1nnc2c(C(N)=O)ncn2c1=O [temozolomide] + NCC(=O)Nc1ccc(-n2nc(C(F)(F)F)cc2-c2ccc3c(ccc4ccccc43)c2)cc1 [OSU03012] (first compound 2 µM, partner dose 1 µM) | 55 | 151 | 79.1 | 23.5 | 102 | 260 | 148 | 107 | 88 | 117 |

From the supplement of paper PMC4604168 (melanoma cell lines)
